22 molecules from PubChem BioAssay AID330 (DTP/NCI, 2004) can be followed below.

The list shows only some results of the screen, not a fair sample: it is rich in T/C values a quarter to a half above the control, in often repeated tests (any T/C) and in doses without a T/C. Further doses and runs are listed elsewhere. T/C gives the treated animals as a percentage of the vehicle group. Some doses have a count of surviving animals in place of a T/C: the source files T/C as zero there, which appears to mark a toxic dose or a test without result, not a measured value. Some doses without a T/C left all or most animals alive at the check, yet need not have been tolerated: survival well below the control is almost never listed, so the zero probably covers shortened survival too. Counts of survivors are from the toxicity check (mostly the fifth day) where no day follows; animals may have died later. Schedules are NCI's codes, read here as Q, the interval in days (D) or hours (H), X, the number of doses. Some entries hold several experiments; their values stand side by side, smallest first. Where survival is the endpoint, this PubChem deposit counts one and a half times the control or more as active, and values a quarter to a half above the control carry no call in these data; other NCI protocols may use other cut-offs. Some T/C values carry the count of animals alive at the toxicity check (mostly the fifth day); where none is given, no animal had died by that day.

This assay concerns P388 leukemia ip, CD2F1 mice, survival T/C. Put plainly: NCI In Vivo Anticancer Drug Screen. Data for tumor model P388 Leukemia (intraperitoneal) in CD2F1 (CDF1) mice. Conditions: T/C endpoint: median survival time, higher T/C = longer survival.
Where [1] appears, read: dose: 50.0 mg/kg/injection, schedule: Q01DX005 (ip), vehicle: Klucel (hydroxypropylcellulose) (HPC).
The mark [2] stands for this setting: dose: 100.0 mg/kg/injection, schedule: Q01DX005 (ip), vehicle: Klucel (hydroxypropylcellulose) (HPC).
The mark [3] stands for this setting: dose: 60.0 mg/kg/injection, schedule: Q04DX003 (ip), vehicle: saline with Tween-80.
[4] abbreviates: dose: 25.0 mg/kg/injection, schedule: Q01DX005 (ip), vehicle: Klucel (hydroxypropylcellulose) (HPC).
The mark [5] stands for this setting: dose: 200.0 mg/kg/injection, schedule: Q01DX005 (ip), vehicle: Klucel (hydroxypropylcellulose) (HPC).
[6] abbreviates: dose: 240.0 mg/kg/injection, schedule: Q01DX005 (ip), vehicle: saline with Tween-80.
Setting [7] is: dose: 200.0 mg/kg/injection, schedule: Q01DX009 (ip), vehicle: Klucel (hydroxypropylcellulose) (HPC).

Consider `C(=C\c1ccncc1)/c1ccncc1`, for which the survivor count (dose: 400.0 mg/kg/injection, schedule: Q01DX009 (ip), vehicle: Klucel (hydroxypropylcellulose) (HPC)) is reported as 3 of 6.

With `COc1ccc2ncc(CO)c(CO)c2c1`, the survivor count under setting [1] is reported as 5 of 5 and the survivor count under setting [2] is reported as 5 of 5.

For `CN(C)c1ccc(Nc2c3ccccc3nc3ccccc23)cc1`, the T/C was 125 % of control (dose: 12.5 mg/kg/injection, schedule: Q04DX002 (ip), vehicle: distilled water + Tween-80); 130 % of control (dose: 43.2 mg/kg/injection, schedule: Q04DX003 (ip), vehicle: saline); 128 and 144 % of control under setting [3]; 144 % of control (dose: 72.0 mg/kg/injection, schedule: Q04DX003 (ip), vehicle: saline); 136 % of control (dose: 100.0 mg/kg/injection, schedule: Q04DX003 (ip), vehicle: saline with Tween-80). The survivor count runs as follows: (dose: 100.0 mg/kg/injection, schedule: Q04DX002 (ip), vehicle: distilled water + Tween-80) 0 of 6 and 3 of 6; (dose: 200.0 mg/kg/injection, schedule: Q04DX002 (ip), vehicle: distilled water + Tween-80) 2 of 6; (dose: 200.0 mg/kg/injection, schedule: Q04DX003 (ip), vehicle: saline) 1 of 8; (dose: 400.0 mg/kg/injection, schedule: Q04DX002 (ip), vehicle: distilled water + Tween-80) 0 of 6.

Consider `Nc1nc(-c2cccnc2)cc(-c2cc(-c3cccnc3)nc(N)n2)n1`, for which the survivor count (dose: 240.0 mg/kg/injection, schedule: Q01DX005 (ip), vehicle: saline) was 1 of 6.

Take `O=C1NC(=O)c2ccc3c4ccc5c6c(ccc(c7ccc1c2c73)c64)C(=O)N(c1ccccc1)C5=O`: under setting [4], the survivor count was 6 of 6.

`CN1CCCN2CCCN(C)P12`: the survivor count is, setting by setting: (dose: 50.0 mg/kg/injection, schedule: Q01DX005 (ip), vehicle: saline) 2 of 6; (dose: 100.0 mg/kg/injection, schedule: Q01DX005 (ip), vehicle: saline) 0 of 6; (dose: 200.0 mg/kg/injection, schedule: Q01DX005 (ip), vehicle: saline) 0 of 6.

`C=CCN(N=Nc1ccc(Cl)cc1)c1ccc(Cl)cc1`: the T/C reads like this: (dose: 50.0 mg/kg/injection, schedule: Q01DX009 (ip), vehicle: saline with Tween-80) 128 % of control; (dose: 100.0 mg/kg/injection, schedule: Q01DX009 (ip), vehicle: saline with Tween-80) 127 % of control.

In the case of `O=[N+]([O-])c1cc(Br)c2cccc3c2c1CC3`, the survivor count under setting [5] was 6 of 6.

In the case of `COc1ccc(/C=C/C(=O)OC2CC34CCNC35CC(OC5(OC)C2OC)c2ccc(OC)c(O)c24)cc1O` (stereo unspecified), the survivor count under setting [2] is on record as 0 of 6.

With `C=C1C(=O)OC2C(OC(C)=O)C1C(OC(=O)C(C)CC)[C@]1(C)C(=O)C=C[C@H]1[C@@H]2C` (stereo partly specified), where the note is “dose: 3.12 mg/kg/injection, schedule: Q01DX005 (ip), vehicle: Klucel (hydroxypropylcellulose) (HPC)”, the T/C is 129 % of control. Besides, the survivor count by setting is: under setting [4], 3 of 6; under setting [1], 0 of 6; under setting [2], 0 of 6; under setting [5], 0 of 6.

As to `CSc1nc(NC2OCC(OC(C)=O)C(OC(C)=O)C2OC(C)=O)c(N=C(C)C(C)=O)c(=O)n1C` (stereo unspecified), the survivor count under setting [6] is 6 of 6.

As for `Cn1c(CCCC(=O)O)nc2cc(N(CCCl)CCCl)ccc21`, the T/C was 145 % of control (dose: 15.0 mg/kg/injection, schedule: Q04DX003 (ip), vehicle: saline with Tween-80, evaluated on day 20) and 145 % of control (dose: 15.0 mg/kg/injection, schedule: Q04DX003 (ip), vehicle: saline with Tween-80, evaluated on day 30). The survivor count runs as follows: (dose: 20.0 mg/kg/injection, schedule: Q01DX009 (ip), vehicle: saline sonified) 5 of 6; (dose: 30.0 mg/kg/injection, schedule: Q04DX003 (ip), vehicle: saline with Tween-80) 6 of 6; under setting [3], 6 of 6.

With `CCn1c(=O)c2[nH]c(Br)nc2n(CC)c1=O`, the T/C runs as follows: (dose: 50.0 mg/kg/injection, schedule: Q01DX009 (ip), vehicle: Klucel (hydroxypropylcellulose) (HPC)) 125 % of control; (dose: 100.0 mg/kg/injection, schedule: Q01DX009 (ip), vehicle: Klucel (hydroxypropylcellulose) (HPC)) 132 % of control [5 of 6 alive]. The survivor count under setting [7] is 0 of 6.

As to `CCCOc1ccc2c(NCCCCCCCCNc3c4ccccc4nc4cc(OCCC)ccc34)c3ccccc3nc2c1`, the T/C reads like this: (dose: 1.25 mg/kg/injection, schedule: Q01DX009 (ip), vehicle: other) 127 % of control; (dose: 2.5 mg/kg/injection, schedule: Q01DX009 (ip), vehicle: lactic acid) 142 % of control; (dose: 2.5 mg/kg/injection, schedule: Q01DX009 (ip), vehicle: other) 130 % of control; (dose: 3.75 mg/kg/injection, schedule: Q01DX009 (ip), vehicle: other) 125 % of control; (dose: 5.0 mg/kg/injection, schedule: Q01DX009 (ip), vehicle: other) 139 % of control. The survivor count by setting is: (dose: 10.0 mg/kg/injection, schedule: Q01DX009 (ip), vehicle: other) 0 of 4; (dose: 15.0 mg/kg/injection, schedule: Q01DX009 (ip), vehicle: other) 0 of 4; (dose: 20.0 mg/kg/injection, schedule: Q01DX009 (ip), vehicle: lactic acid) 0 of 6; (dose: 20.0 mg/kg/injection, schedule: Q01DX009 (ip), vehicle: other) 0 of 4.

On to `CC1C(=O)C(Cl)(Cl)C1(C)C` (stereo unspecified), for which the survivor count (dose: 400.0 mg/kg/injection, schedule: Q01DX001 (ip), vehicle: saline with Tween-80) is 1 of 6.

In the case of `C=C(C(=O)O)C(=O)O`, the survivor count (dose: 200.0 mg/kg/injection, schedule: Q01DX009 (ip), vehicle: saline) is on record as 4 of 6.

As for `CCc1ccc(N2C(=O)C(CC(=O)O)SC23C(=O)N(Cc2ccccc2)c2ccccc23)cc1` (stereo unspecified), the survivor count under setting [6] was 6 of 6.

Take `CCNC(=O)OCC1=C(COC(=O)NCC)C2OC1C(C(=O)OC)=C2C(=O)OC`: the survivor count is 6 of 6 (dose: 25.0 mg/kg/injection, schedule: Q01DX009 (ip), vehicle: distilled water + Tween-80); 5 of 6 (dose: 50.0 mg/kg/injection, schedule: Q01DX009 (ip), vehicle: distilled water + Tween-80); 2 of 6 (dose: 100.0 mg/kg/injection, schedule: Q01DX009 (ip), vehicle: distilled water + Tween-80); 0 of 6 (dose: 200.0 mg/kg/injection, schedule: Q01DX009 (ip), vehicle: distilled water + Tween-80).

Regarding `CC(=O)NC1C(OC(C)=O)OC(C[Se][As](C)C)C(OC(C)=O)C1OC(C)=O` (stereo unspecified), the survivor count under setting [7] was 0 of 6.

As for `COC12CC(=O)C(C(C)=O)=C(O)C1(C)c1c(OC(C)=O)c(C)c(O)c(C(C)=O)c1O2` (stereo unspecified), the survivor count was 0 of 6 and 6 of 6 (dose: 100.0 mg/kg/injection, schedule: Q01DX009 (ip), vehicle: gum acacia); 0 of 6 (dose: 200.0 mg/kg/injection, schedule: Q01DX009 (ip), vehicle: gum acacia).

As to `Nc1cc2c(cc1C(=O)N1CCc3ccccc31)OCO2`, the survivor count (dose: 400.0 mg/kg/injection, schedule: Q01DX009 (ip), vehicle: other) is 0 of 6.

For the molecule `C/C(=N\NC(=S)NC12CC3CC(CC(C3)C1)C2)c1ccccn1`, where the note is “dose: 400.0 mg/kg/injection, schedule: Q04DX003 (ip), vehicle: saline with Tween-80”, the survivor count is 4 of 6.
